Laboratory results taken from PubChem BioAssay AID540276 (National Center for Advancing Translational Sciences (NCATS), 2011).
Several values for one entry are separate records, joined by “and”; a condition that tells them apart may be missing. Equal entries are not always repeated. Hit rate of the full screen: of about 300,000 compounds, about 5,400 (1.8%) were called active. This list was built around the results that the source calls inconclusive (neither active nor inactive); the mix of calls is not that of the screen. Calls follow the shape of the full dose curve; tested in HEK293 cells. Potencies of inconclusive entries are doubtful fits and often do not repeat.
% is scaled to controls: 0 for no effect and ±100 for the full control effect; potency is read from the fitted curve at half-maximal effect.

Experiment: qHTS for inhibitors of binding or entry into cells for Marburg Virus
Conditions: Marburg virus pseudotyped entry inhibition, cell reporter; activity change, negative = inhibition: at 37.8 µM (top of the series) unless noted
In the case of `Cc1cc(NCCO)c2ccccc2n1`, the Potency is reported as inconclusive: 3.16 µM [inhibitor, partial curve, poor fit].
With `CCOc1ccc2nc(Cl)c(CN(C(C)=O)C3CCCCC3)cc2c1` the Potency was inconclusive: 2.82 µM [inhibitor, full curve].
In the case of `CC1CCc2nn(CC(=O)Nc3ccccc3Cl)cc2C1` (stereo unspecified), the Potency is reported as inconclusive: 8.91 µM [activator, partial curve, poor fit].
With `Oc1cccc2ccc(/C=C/c3cccs3)nc12` the Potency was inconclusive: 29.1 µM [inhibitor, single point].
For `O=S(=O)(c1ccc(F)cc1)N1CCN(C(=S)NCC2CCCO2)CC1` (stereo unspecified), the Potency was inconclusive: 12.6 µM [activator, single point].
For `Cc1cc(Cc2cc(C)c(O)c(CO)c2)cc(CO)c1O`, the Potency was inconclusive: 6.31 µM [inhibitor, partial curve, poor fit].
For `Cn1cc(/C=C2\SC(=O)NC2=S)c2ccccc21`, the Potency was inconclusive: 22.4 µM [inhibitor, single point].
For `CCC(C(=O)NC1CCCCC1)N(Cc1cccs1)C(=O)c1snc(C(N)=O)c1N` (stereo unspecified), the Potency was inconclusive: 11.2 µM [inhibitor, partial curve, poor fit].
For `Cc1sc2ncnc(OCC(=O)Nc3ccc4c(c3)OCCO4)c2c1C`, the Potency was “inactive”.
With `COc1ccc(/C(C)=N\Nc2nc(-c3ccccc3)cc(=O)[nH]2)cc1` the Potency was inconclusive: 1.12 µM [inhibitor, partial curve].
In the case of `C/C=C/c1ccccc1OCc1ccc(C(=O)OC)o1`, the Potency is reported as inconclusive: 35.5 µM [activator, single point].
In the case of `Fc1ccccc1CNCCc1c[nH]c2ccccc12`, the Potency is reported as inconclusive: 6.31 µM [inhibitor, full curve, poor fit].
In the case of `OC1CCCN(c2c3c(nc4cc(-c5cccc(Cl)c5)nn24)CCC3)C1` (stereo unspecified), the Potency is reported as inconclusive: 23.1 µM [inhibitor, single point].
For `Cc1ccc(CNC(=O)c2ccc(N3CCc4ccccc43)c([N+](=O)[O-])c2)cc1`, the Potency was inconclusive: 7.94 µM [inhibitor, partial curve, poor fit].
For `COc1ccc(NC(=O)Cn2nnc(-c3ccccc3NC(=O)c3ccco3)n2)cc1`, the Potency was active: 11.2 µM.
For `COC(=O)c1ccc(CN2C(=O)NC(Cc3c[nH]c4ccccc34)C2=O)cc1` (stereo unspecified), the Potency was inconclusive: 6.31 µM [activator, single point].
For `O=C(CCC(=O)c1ccc(F)cc1)Nc1cccc(S(=O)(=O)Nc2cccc(Cl)c2)c1`, the Potency was inconclusive: 29.1 µM [inhibitor, single point].
In the case of `CCCn1c(SCc2nc(-c3ccc(OC)c(OC)c3)no2)nnc1-c1ccccc1`, the Potency is reported as active: 5.62 µM.
For `O=C(Nc1nnc(-c2ccco2)o1)c1cccc(Cl)c1`, the Potency was inconclusive: 0.562 µM [inhibitor, full curve, poor fit].
For `Cc1ccc(NC(=O)c2cnn3c(C(F)F)cc(-c4ccccc4)nc23)cc1F`, the Potency was inconclusive: 31.6 µM [activator, single point].
With `Cc1ccc(S(=O)(=O)N2CCCCC2)cc1C(=O)OC(C)C(=O)NCC1CCCCC1` (stereo unspecified) the Potency was inconclusive: 12.6 µM [inhibitor, partial curve].
With `O=C(Cc1ccccc1[N+](=O)[O-])N1CCN(c2ccc(F)cc2)CC1` the Potency was “inactive”.
With `COc1ccccc1N(O)C1CC(=O)N(c2ccc(F)cc2)C1=O` (stereo unspecified) the Potency was “inactive”.
For `O=S(=O)(c1ccc2ccccc2c1)N1CCNCC1`, the Potency was inconclusive: 1.58 µM [activator, partial curve, poor fit].
For `O=C(CCC(=O)c1cccs1)c1cccs1`, the Potency was inconclusive: 1.16 µM [activator, single point].
With `O=C(O)c1ccccc1C(=O)N1CCN(C(=O)c2ccccc2Cl)CC1` the Potency was “inactive”.
With `Cc1cnn(-c2cc(N/N=C/c3cccc(F)c3)ncn2)c1` the Potency was “inactive”.
With `COc1cccc(CO[C@H]2C=C[C@@H](c3ccccc3)O[C@H]2CO)c1` the Potency was “inactive”.
For `CNC(=S)N1N=C(c2ccc(Br)cc2)CC1c1ccc(OC)cc1` (stereo unspecified), the Potency was inconclusive: 35.5 µM [inhibitor, single point].
In the case of `O=S1(=O)CCC(NS(=O)(=O)/C=C/c2ccccc2)C1` (stereo unspecified), the Potency is reported as “inactive”.
With `COc1ccc(C(c2nnnn2Cc2ccc(F)cc2)N2CCN(c3ccccc3)CC2)cc1` (stereo unspecified) the Potency was inconclusive: 35.5 µM [inhibitor, single point].
With `Cc1cnc(C(=O)N2CCCC(N3CCN(c4cccc(C(F)(F)F)c4)CC3)C2)cn1` (stereo unspecified) the Potency was inconclusive: 6.31 µM [inhibitor, single point].
For `COc1ccc(CN(Cc2ccco2)c2cnc(S(C)(=O)=O)nc2C(=O)Nc2ccc(C)c(Cl)c2)cc1`, the Potency was inconclusive: 35.5 µM [inhibitor, single point].
In the case of `O=C(Nc1ccc2nc(SCC(=O)N3CCc4ccccc43)sc2c1)c1ccc(F)cc1`, the Potency is reported as “inactive”.
With `CN(c1ccc(C(=O)NCCSC(C)(C)C)cc1)S(C)(=O)=O` the Potency was inconclusive: 2.82 µM [activator, partial curve, poor fit].
For `O=C(NCc1cccc(Cl)c1)c1ccc2ccccc2n1`, the Potency was inconclusive: 22.4 µM [inhibitor, single point].
With `COc1ccccc1C(=O)Nc1cc2ccccc2oc1=O` the activity change, negative = inhibition was inconclusive: 42.4% [activator].
For `COC(=O)c1sc(NC(=O)c2ccc(OC)cc2OC)nc1C`, the Potency was inconclusive: 1.83 µM [inhibitor, full curve, poor fit].
For `COC(=O)N1C(C=Cc2ccc3c(c2)OCO3)=Cc2ccccc2C1CC(C)=O` (stereo unspecified), the Potency was “inactive”.
For `CCOC(=O)N1CCC(Nc2c(NCCCN3CCN(CC)CC3)c(=O)c2=O)CC1`, the Potency was inconclusive: 0.0065 µM [inhibitor, full curve, poor fit].
In the case of `CCOc1ccc(NC(=O)Cn2c(C)cc3ccccc3c2=O)cc1`, the Potency is reported as inconclusive: 6.31 µM [inhibitor, single point].
With `Cc1ccc(NC(=O)Cn2c(=O)n(CCCCC(=O)NCc3ccccc3Cl)c(=O)c3ccccc32)cc1C` the Potency was “inactive”.
With `COc1cccc(C(=O)Nc2cccc3ccccc23)c1OC` the Potency was active: 8.91 µM.
In the case of `O=C(CNS(=O)(=O)c1ccc2ccccc2c1)Nc1ccc(F)c(F)c1F`, the Potency is reported as inconclusive: 2.51 µM [activator, full curve, poor fit].
With `COc1cc(C(=O)NNC(=S)NC(=O)/C=C/c2ccccc2)cc(OC)c1OC` the Potency was “inactive”.
With `CCOc1ccc(OCCSc2nnnn2C2CCCCC2)cc1` the Potency was inconclusive: 0.891 µM [activator, full curve, poor fit].
In the case of `CCc1ccc(/C=C2\SC(=S)N(CCC(=O)Nc3cc(C)on3)C2=O)cc1`, the Potency is reported as “inactive”.
For `O=Cc1ccccc1-n1cccn1`, the Potency was inconclusive: 7.94 µM [activator, partial curve, poor fit].
In the case of `O=C(NC(=S)Nc1ccc2oc(=O)ccc2c1)c1ccccc1F`, the Potency is reported as inconclusive: 6.31 µM [inhibitor, single point].
For `Cc1ccc(/C=N/NC(=O)Cc2cccn2C)s1`, the Potency was “inactive”.
For `CC1CCc2c(nc3ncnn3c2Nc2ccc(OC(F)(F)F)cc2)C1` (stereo unspecified), the Potency was inconclusive: 0.891 µM [inhibitor, full curve, poor fit].
In the case of `COc1cc(/C=N/NC(=O)C23CC4CC(CC(C4)C2)C3)cc(Br)c1O`, the Potency is reported as inconclusive: 0.82 µM [activator, full curve].
With `O=C(NC1CCCCC1)N1CCN(CCc2ccccc2)CC1` the Potency was “inactive”.
For `COc1ccccc1NC(=O)CN1CCCN(S(=O)(=O)c2ccc(Br)cc2)CC1`, the Potency was “inactive”.
For `CC(C)(C)c1ccc(O[C@@H]2[C@H](O)CO[C@H]2/C=C/C#Cc2ccccc2)cc1`, the Potency was “inactive”.
With `CCn1cc(CN(C)C(=O)CSc2nc(-c3ccco3)cc(C(F)(F)F)n2)c(C)n1` the Potency was inconclusive: 35.5 µM [inhibitor, single point].
For `COc1ccc(C)cc1NC(=O)COC(=O)c1ccc([N+](=O)[O-])o1`, the Potency was “inactive”.
For `Oc1cccc(-c2nc3ccc4ccccc4c3c3c2CCC3)c1`, the Potency was “inactive”.
With `COc1cc(C(=O)NCC(=O)N/N=C/c2ccco2)cc(OC)c1OC` the Potency was inconclusive: 35.5 µM [activator, single point].
For `Cc1nn2c(-c3ccco3)ccnc2c1-c1ccc(F)cc1`, the Potency was inconclusive: 6.31 µM [activator, single point].
For `CCn1c(=O)c(=O)[nH]c2c(=O)oc3ccc(S(=O)(=O)Nc4ccc(OC)cc4)cc3c21`, the Potency was inconclusive: 35.5 µM [inhibitor, partial curve, poor fit].
For `CCNC(=O)C1CC(=O)OC12CCCCC2` (stereo unspecified), the Potency was inconclusive: 1.03 µM [activator, full curve, poor fit].
In the case of `Cc1occc1C(=O)Nc1ccc(OCc2ccccc2)cc1`, the Potency is reported as inconclusive: 35.5 µM [inhibitor, single point].
In the case of `Cc1ccccc1NC(=O)CSc1nnc2ccc(-c3ccncc3)nn12`, the Potency is reported as “inactive”.
For `COc1cccc(NC(=S)N2CCN(S(=O)(=O)c3ccccc3)CC2)c1`, the Potency was “inactive”.
With `COC(=O)c1cc(C(=O)c2ccc(C(C)(C)C)cc2)c[nH]1` the Potency was “inactive”.
In the case of `Cc1cc(Nc2ccc(F)cc2)n2c(nc3ccccc32)c1C#N`, the Potency is reported as “inactive”.
In the case of `N#CCCCSc1nnc(Cc2ccc3c(c2)OCO3)o1`, the activity change, negative = inhibition is reported as inconclusive: 13% [activator] [at 46.1 µM].
In the case of `CC(Nc1ccc(S(=O)(=O)N2CCN(C)CC2)cc1[N+](=O)[O-])c1ccccc1` (stereo unspecified), the Potency is reported as inconclusive: 1.58 µM [activator, partial curve, poor fit].
For `CCCC(=O)c1cc2ccccc2oc1=O`, the Potency was “inactive”.
In the case of `CC(=O)[C@H]1CC[C@H]2[C@@H]3CC[C@H]4C[C@H](O)CC[C@]4(C)[C@H]3C(=O)C[C@]12C`, the Potency is reported as “inactive and inconclusive: 12.6 µM [inhibitor, partial curve]”.
